Laboratory results published in patent publication US4261885A (Shiraimatsu Shingaku Co., Ltd., priority 1978, dated 1981).

Assay: general procedure: solution-phase peptide synthesis; active esters (ONp, OSu) with HOBT; azide fragment condensation (isoamylnitrite/)
Details: coupling step, hydrochloride (crude)

Boc-D-Trp-Lys[Cbz(o-Cl)]-Thr(Bzl)-Phe-OEt
step yield: yield=81%

Boc-Lys[Cbz(o-Cl)]-Asn-Phe-Phe-OEt
step yield: yield=86%

Boc-D-Trp-Lys[Cbz(o-Cl)]-Thr(Bzl)-Phe-Thr(Bzl)-Ser(Bzl)-D-Asu-OBzl
step yield: yield=58%
